In article PMC13041742, “Nonlinear stiffness of NompC gating spring and its implication in mechanotransduction” (Science Advances, 2026):
Results are given in words; binding and its absence hold for the method and conditions named. Some entries that bind do so weakly or less than the wild type.

The chains behind the UniProt entries cited, without tags or fusion partners.
UniProt E0A9E1: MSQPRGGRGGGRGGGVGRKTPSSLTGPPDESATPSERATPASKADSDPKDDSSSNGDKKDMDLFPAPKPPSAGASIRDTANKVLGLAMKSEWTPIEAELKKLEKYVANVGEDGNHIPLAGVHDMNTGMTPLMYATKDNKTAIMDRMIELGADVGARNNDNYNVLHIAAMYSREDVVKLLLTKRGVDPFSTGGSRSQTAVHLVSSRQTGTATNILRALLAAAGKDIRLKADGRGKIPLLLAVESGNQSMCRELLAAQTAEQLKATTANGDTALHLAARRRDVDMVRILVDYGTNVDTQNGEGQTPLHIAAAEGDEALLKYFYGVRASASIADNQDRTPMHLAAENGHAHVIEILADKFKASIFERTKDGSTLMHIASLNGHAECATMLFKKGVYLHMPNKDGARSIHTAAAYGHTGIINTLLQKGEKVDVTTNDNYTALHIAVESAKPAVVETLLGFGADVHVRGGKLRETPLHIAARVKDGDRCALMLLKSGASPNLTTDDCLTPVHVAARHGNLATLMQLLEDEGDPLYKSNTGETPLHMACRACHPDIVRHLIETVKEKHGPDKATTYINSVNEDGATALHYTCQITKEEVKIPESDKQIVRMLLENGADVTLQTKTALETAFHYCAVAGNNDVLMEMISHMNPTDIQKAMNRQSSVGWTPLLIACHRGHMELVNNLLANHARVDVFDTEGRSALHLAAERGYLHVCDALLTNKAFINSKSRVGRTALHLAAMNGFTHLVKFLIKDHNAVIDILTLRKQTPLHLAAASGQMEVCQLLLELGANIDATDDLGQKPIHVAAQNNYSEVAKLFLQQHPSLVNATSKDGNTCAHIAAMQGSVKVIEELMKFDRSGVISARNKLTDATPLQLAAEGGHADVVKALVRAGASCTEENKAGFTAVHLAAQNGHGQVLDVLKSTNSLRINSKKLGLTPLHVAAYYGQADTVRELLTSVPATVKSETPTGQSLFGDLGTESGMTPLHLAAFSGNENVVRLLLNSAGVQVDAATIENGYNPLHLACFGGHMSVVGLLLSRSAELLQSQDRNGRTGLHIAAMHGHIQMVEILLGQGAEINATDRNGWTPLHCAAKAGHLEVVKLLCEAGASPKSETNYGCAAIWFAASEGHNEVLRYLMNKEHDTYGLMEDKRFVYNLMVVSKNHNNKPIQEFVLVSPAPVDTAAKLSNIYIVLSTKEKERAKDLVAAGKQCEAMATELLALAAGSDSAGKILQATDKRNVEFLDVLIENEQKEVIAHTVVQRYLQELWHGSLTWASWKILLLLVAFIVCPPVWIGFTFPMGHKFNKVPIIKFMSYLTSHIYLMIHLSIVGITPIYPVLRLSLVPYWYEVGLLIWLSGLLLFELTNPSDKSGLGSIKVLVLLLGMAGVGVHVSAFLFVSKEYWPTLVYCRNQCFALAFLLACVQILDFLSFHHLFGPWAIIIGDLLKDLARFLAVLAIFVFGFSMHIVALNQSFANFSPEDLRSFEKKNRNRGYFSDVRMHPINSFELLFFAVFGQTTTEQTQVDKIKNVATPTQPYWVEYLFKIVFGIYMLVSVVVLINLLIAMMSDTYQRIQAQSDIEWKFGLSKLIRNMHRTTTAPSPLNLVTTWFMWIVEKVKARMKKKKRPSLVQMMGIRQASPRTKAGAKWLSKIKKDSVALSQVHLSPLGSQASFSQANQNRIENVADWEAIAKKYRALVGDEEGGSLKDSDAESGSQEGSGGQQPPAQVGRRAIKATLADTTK

Target: Drosophila full-length NompC (Drosophila) (UniProt E0A9E1)
Assay: optical tweezers (single-molecule force spectroscopy); single nanodisc-embedded NompC complex tethered between two beads by DNA handles (SpyTag-SpyCatcher at the N terminus of one subunit, biotin-PE/streptavidin at the nanodisc), pulled from one ARD at 10 nm/s; 20 mM bicine pH 8.5, 300 mM …; stiffness compared with NompC-Δ12; both purified

Substance: Drosophila full-length NompC (from UniProt E0A9E1 1-1732) (complex)
- binding: binds
